Measurements from patent publication US20160039895A1 (published 2016).
Where a chain is given by its changes, count along the chain named. These are yes or no findings as the source states them, for the method shown. Some results given as binding are weak or reduced against the parent protein; the word gives no strength.

Amino acid sequences for entries named in this document (tags omitted). A change or cut given only in a name is not applied to a line headed by its entry. Residues count along the entry.
UniProt P35968: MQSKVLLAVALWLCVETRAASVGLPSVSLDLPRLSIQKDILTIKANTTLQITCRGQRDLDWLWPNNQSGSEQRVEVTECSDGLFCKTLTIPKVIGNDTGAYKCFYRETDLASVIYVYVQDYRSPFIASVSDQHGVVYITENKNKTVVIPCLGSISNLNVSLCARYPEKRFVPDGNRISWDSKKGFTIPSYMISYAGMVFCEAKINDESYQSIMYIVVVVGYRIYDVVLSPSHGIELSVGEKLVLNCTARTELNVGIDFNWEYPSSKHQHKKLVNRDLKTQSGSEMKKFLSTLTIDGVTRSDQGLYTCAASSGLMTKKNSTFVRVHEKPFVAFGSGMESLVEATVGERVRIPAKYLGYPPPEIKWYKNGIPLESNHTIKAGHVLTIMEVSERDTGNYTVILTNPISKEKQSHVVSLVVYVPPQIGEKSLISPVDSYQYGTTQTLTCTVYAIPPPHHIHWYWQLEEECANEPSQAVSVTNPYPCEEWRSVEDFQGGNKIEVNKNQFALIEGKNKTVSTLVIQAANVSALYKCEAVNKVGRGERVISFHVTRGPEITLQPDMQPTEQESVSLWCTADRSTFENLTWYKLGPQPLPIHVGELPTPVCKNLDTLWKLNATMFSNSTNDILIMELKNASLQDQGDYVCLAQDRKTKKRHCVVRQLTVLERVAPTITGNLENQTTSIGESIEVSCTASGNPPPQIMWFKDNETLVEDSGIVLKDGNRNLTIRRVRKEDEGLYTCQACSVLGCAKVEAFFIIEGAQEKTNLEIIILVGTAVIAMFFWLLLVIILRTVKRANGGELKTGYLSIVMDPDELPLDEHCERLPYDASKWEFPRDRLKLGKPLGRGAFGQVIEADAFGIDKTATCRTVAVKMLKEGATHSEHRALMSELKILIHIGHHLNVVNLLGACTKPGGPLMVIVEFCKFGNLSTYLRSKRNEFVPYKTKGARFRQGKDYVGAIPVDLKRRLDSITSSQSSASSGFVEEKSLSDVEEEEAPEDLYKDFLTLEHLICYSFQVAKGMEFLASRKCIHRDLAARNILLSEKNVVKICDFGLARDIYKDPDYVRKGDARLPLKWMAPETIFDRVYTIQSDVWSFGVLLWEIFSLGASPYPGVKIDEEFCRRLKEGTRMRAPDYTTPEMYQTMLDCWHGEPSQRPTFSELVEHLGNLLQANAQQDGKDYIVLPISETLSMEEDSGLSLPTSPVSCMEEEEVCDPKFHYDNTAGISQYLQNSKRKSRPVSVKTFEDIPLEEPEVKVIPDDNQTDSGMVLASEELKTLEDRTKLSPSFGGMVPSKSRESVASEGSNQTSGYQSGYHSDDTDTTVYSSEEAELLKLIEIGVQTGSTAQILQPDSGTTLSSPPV
human VEGFR2 on cells (PAE/KDR cells, HUVEC): residues 20-1356 of P35968
recombinant human VEGFR2 extracellular domain: residues 20-764 of P35968

B1: scVEGF-mA (designed binder)
chain: EVAKAMDVYQKSYCHPIETLVDILQEYPDEIGYIFKPSCVPLMRCGGCCNDAGLECVPTEESNITMQIMRIKPYQGQHIGEMSFLQHNKCECRPKKDGSTSGSGKSSEGKGEVVKFMDVYQRSYCHPIETLVDIFQEYPDKIEYAFKPSCVPLMRCGGCCNNEGLECVPTEESNITMQITRAKPHQGQHIGEMSFLQHNKCECRPKKD
notes: Soluble protein from P. pastoris with C-terminal hexahistidine tag, with or without N-terminal FLAG tag (tags not included in the parts); also called scVEGFmut-A
B2: scVEGF-mJ (designed binder)
chain: B1 chain with V2I, A3V, M6R, K11R, G32E, Q77H, K141E, T180M, I190T
notes: Soluble protein with C-terminal hexahistidine tag, with or without N-terminal FLAG tag (tags not included in the parts); also called scVEGFmut-J
B3: scVEGF-mE (designed binder)
chain: B1 chain with A3V, K11R, D51G, Y74H, Q75R, K115R, D140N, K141E, T180M
notes: Soluble protein with C-terminal hexahistidine tag, with or without N-terminal FLAG tag (tags not included in the parts); also called scVEGFmut-E
B4: scVEGF-mM (designed binder)
chain: EVVKAMDVYRRSYCHPVETSVDILQEYPDEIEYIFKPSCVPLMRCGGCCNDAGLECVPTEESNTTMQIMRIKPYRGQHIGEMSFLQHNKCECRPKKDGSTSGSGKSSEGKGEVVKFMDVYQRSYCHPIETLVDIFQEYPDEIEYAFKPSCVSLMRCGGCCNNEGLECVPTEESNITVQIMGAKPHQGQHIGEMSFLQHNKCECRPKKD
notes: Soluble protein with C-terminal hexahistidine tag, with or without N-terminal FLAG tag (tags not included in the parts); also called scVEGFmut-M
B5: scVEGFrgd-7H (designed binder)
chain: EVVKAMDVYQRSYCHPIETLVDIFQEYPDEIEYIFKPSCVPLMRCGGCCNDAGLECVPTEESNITMQIMRIKPHQGQHIGEMSFLQHNKCECRPKKDGSTSGSGKSSEGKGEVVKFMDVYQRSYCHPIETLVDIFQEYPDEIEYAFKPSCVPLMRCGGCCNDEGLECVPTEESNITMQIMRPGGRGDSAYHIGEMSFLQHNKCECRPKKDTR
notes: Soluble protein from P. pastoris with C-terminal hexahistidine tag, with or without N-terminal FLAG tag; also called scVEGF-7H
B6: scVEGFrgd-7P (designed binder)
chain: B5 chain with G183A, G184S, A189P, Y190P
notes: Soluble protein from P. pastoris with C-terminal hexahistidine tag, with or without N-terminal FLAG tag; also called scVEGF-7P
B7: scVEGFrgd-7I (designed binder)
chain: EVVKAMDVYQRSYCHPIETLVDIFQEYPDEIEYIFKPSCVPLMRCGGCCNDAGLECVPTEESNITMQIMRIKPHQGQHIGEMSFLQHNKCECRPKKDGSTSGSGKSSEGKGEVVKFMDVYQRSYCHPIETLVDIFQEYPDEIEYAFKPSCVPLMRCGGCCNDEGLECVPTEESNITMQIMRPSVRRGDSPASHIGEMSFLQHNKCECRPKKDTR
notes: Soluble protein from P. pastoris with C-terminal hexahistidine tag, with or without N-terminal FLAG tag; also called scVEGF-7I
B8: scVEGFrgd-7B-A (designed binder)
chain: EVVKAMDVYQRSYCHPIETLVDILQEYPDEIEYIFKPSCVPLMRCGGCCNDAGLECVPTEESNITMQVMRIKPYRGQHIGEMSFLQHNKCECRPKKDGSTSGSGKSSEGKGEVVKFMDVYQRSYCHPIETLVDIFQEYPDEIEYAFKPSCVPLMRCGGCCNNEGLECVPTEESNITMQIMRPHDRGDAGVHIGEMSFLQHNKCECRPRKD
B9: scVEGFrgd-7B-K (designed binder)
chain: B8 chain with V68I, R75Q, K115R, N162H, R208K, K209E
B10: scVEGFrgd-7B-C (designed binder)
chain: B8 chain with R11G, D51N, V68I, R75Q, D97G, N162H, Q178R, R208K, K209R

Target: recombinant human VEGFR2 extracellular domain (human) (UniProt P35968)
Test: SPR (BIAcore), VEGFR2 immobilized

binding	Binder
binds	B1
binds	B2
binds	B3
binds	B4

Target: porcine αvβ3 integrin on PAE cells (porcine)
Test: flow cytometry titration on PAE cells

binding	Binder
binds	B5
binds	B6
binds	B7

Target: human VEGFR2 on cells (PAE/KDR cells, HUVEC) (human) (UniProt P35968)
Test: flow cytometry titration on PAE/KDR cells

binding	Binder
binds	B1
binds	B2
binds	B3

Target: recombinant human VEGFR2 extracellular domain (human) (UniProt P35968)
Test: yeast surface display, individual clones binding VEGFR2

binding	Binder
binds	B8
binds	B9
binds	B10
binds	B1
binds	B2
binds	B3
binds	B4
